Measurements reported in PubChem BioAssay AID743121 (NCATS, 2013)

Aim: 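Knock-downs that sensitise breast cancer cells to camptothecin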 (primary screen)
System: MDA-MB-231 cells, a human breast cancer line
Knock-down reagent: single siRNA against human genes, 20 nM siRNA (0.8 pmol per well)
Duration: 120 h (drug added 48 h after transfection, read 72 h later)
Treatment: camptothecin 20 nM (about EC30) for 72 h; vehicle 0.1% DMSO in parallel plates
Read-out: 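CellTiter-Glo ATP signal, scaled to control siRNA as percent viability; sensitisation given as log2 of untreated divided by camptothecin-treated viability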
Scale: log2 vehicle/camptothecin viability: higher = stronger sensitisation to camptothecin; viability with camptothecin: higher = more viable cells
Call rule: 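Active genes have an RSA gene-level p-value below 0.001, computed from the ratios of their separate siRNAs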
This is one part, drawn at random, of about 26,000 reagents. Of all reagents, 167 (0.63%) were called active. 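Calls are per gene from RSA p-values that are not deposited; an individual active-marked siRNA can sensitise only weakly.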 Reagents against one gene are numbered here. Not all columns of the deposit are shown.

SENP2 #1
- log2 vehicle/camptothecin viability: -0.505
- viability with camptothecin (% of control): 94.5
- Outcome: inactive

SENP2 #2
- log2 vehicle/camptothecin viability: -0.187
- viability with camptothecin (% of control): 90
- Outcome: inactive

SENP2 #3
- log2 vehicle/camptothecin viability: -0.396
- viability with camptothecin (% of control): 63.4
- Outcome: inactive

SENP2 #4
- log2 vehicle/camptothecin viability: -0.119
- viability with camptothecin (% of control): 71.2
- Outcome: inactive

TOMM20L #1
- log2 vehicle/camptothecin viability: 0.0906
- viability with camptothecin (% of control): 94.2
- Outcome: inactive

TOMM20L #2
- log2 vehicle/camptothecin viability: -0.253
- viability with camptothecin (% of control): 129
- Outcome: inactive

TOMM20L #3
- log2 vehicle/camptothecin viability: -0.0169
- viability with camptothecin (% of control): 102
- Outcome: inactive

TOMM20L #4
- log2 vehicle/camptothecin viability: -0.336
- viability with camptothecin (% of control): 87.7
- Outcome: inactive

TREX2 #1
- log2 vehicle/camptothecin viability: 0.212
- viability with camptothecin (% of control): 67.1
- Outcome: inactive

TREX2 #2
- log2 vehicle/camptothecin viability: -0.405
- viability with camptothecin (% of control): 58.9
- Outcome: inactive

TREX2 #3
- log2 vehicle/camptothecin viability: 0.931
- viability with camptothecin (% of control): 43.6
- Outcome: inactive

TREX2 #4
- log2 vehicle/camptothecin viability: -0.518
- viability with camptothecin (% of control): 77.9
- Outcome: inactive

Just “viability with camptothecin (% of control)” (3 entries from above):
TREX2 #1: 67.1
TREX2 #2: 58.9
TREX2 #3: 43.6

Next reagents follow.
PRMT2 #1
- log2 vehicle/camptothecin viability: -0.308
- viability with camptothecin (% of control): 114
- Outcome: inactive

PRMT2 #2
- log2 vehicle/camptothecin viability: -0.0668
- viability with camptothecin (% of control): 51.1
- Outcome: inactive

PRMT2 #3
- log2 vehicle/camptothecin viability: -0.0459
- viability with camptothecin (% of control): 95.1
- Outcome: inactive

PRMT2 #4
- log2 vehicle/camptothecin viability: -2.74
- viability with camptothecin (% of control): 73.3
- Outcome: inactive

TNFSF8 #1
- log2 vehicle/camptothecin viability: 0.718
- viability with camptothecin (% of control): 13.6
- Outcome: inactive

TNFSF8 #2
- log2 vehicle/camptothecin viability: 0.066
- viability with camptothecin (% of control): 70.6
- Outcome: inactive

TNFSF8 #3
- log2 vehicle/camptothecin viability: -0.226
- viability with camptothecin (% of control): 79.8
- Outcome: inactive

TNFSF8 #4
- log2 vehicle/camptothecin viability: -0.385
- viability with camptothecin (% of control): 89.6
- Outcome: inactive

ADH1C #1
- log2 vehicle/camptothecin viability: 0.217
- viability with camptothecin (% of control): 72.9
- Outcome: inactive

ADH1C #2
- log2 vehicle/camptothecin viability: -0.267
- viability with camptothecin (% of control): 111
- Outcome: inactive

ADH1C #3
- log2 vehicle/camptothecin viability: -0.2
- viability with camptothecin (% of control): 108
- Outcome: inactive

ADH1C #4
- log2 vehicle/camptothecin viability: 0.0739
- viability with camptothecin (% of control): 118
- Outcome: inactive

TEX13A #1
- log2 vehicle/camptothecin viability: 0.822
- viability with camptothecin (% of control): 26.5
- Outcome: inactive

TEX13A #2
- log2 vehicle/camptothecin viability: -0.058
- viability with camptothecin (% of control): 82.5
- Outcome: inactive

TEX13A #3
- log2 vehicle/camptothecin viability: -0.226
- viability with camptothecin (% of control): 74.7
- Outcome: inactive

TEX13A #4
- log2 vehicle/camptothecin viability: -0.257
- viability with camptothecin (% of control): 70.5
- Outcome: inactive

CCR9 #1
- log2 vehicle/camptothecin viability: -0.0138
- viability with camptothecin (% of control): 106
- Outcome: inactive

CCR9 #2
- log2 vehicle/camptothecin viability: -0.251
- viability with camptothecin (% of control): 108
- Outcome: inactive

CCR9 #3
- log2 vehicle/camptothecin viability: 0.561
- viability with camptothecin (% of control): 73
- Outcome: inactive

CCR9 #4
- log2 vehicle/camptothecin viability: -0.099
- viability with camptothecin (% of control): 95.8
- Outcome: inactive

MPP1 #1
- log2 vehicle/camptothecin viability: -0.0051
- viability with camptothecin (% of control): 71.4
- Outcome: inactive

MPP1 #2
- log2 vehicle/camptothecin viability: -0.424
- viability with camptothecin (% of control): 52.7
- Outcome: inactive

MPP1 #3
- log2 vehicle/camptothecin viability: -0.37
- viability with camptothecin (% of control): 96.7
- Outcome: inactive

MPP1 #4
- log2 vehicle/camptothecin viability: -0.317
- viability with camptothecin (% of control): 72.9
- Outcome: inactive
